{"source": "paper PMC10058050", "about": "“A Bitter Taste Receptor as a Novel Molecular Target on Cancer-Associated Fibroblasts in Pancreatic Ductal Adenocarcinoma” (Pharmaceuticals, 2023)", "binders": {"B1": {"name": "taste receptor type 2 member 9 (TAS2R9), endogenous on PDAC patient-derived CAFs (receptor, UniProt Q9NYW1 1-312)", "chain": "MPSAIEAIYIILIAGELTIGIWGNGFIVLVNCIDWLKRRDISLIDIILISLAISRICLLCVISLDGFFMLLFPGTYGNSVLVSIVNVVWTFANNSSLWFTSCLSIFYLLKIANISHPFFFWLKLKINKVMLAILLGSFLISLIISVPKNDDMWYHLFKVSHEENITWKFKVSKIPGTFKQLTLNLGVMVPFILCLISFFLLLFSLVRHTKQIRLHATGFRDPSTEAHMRAIKAVIIFLLLLIVYYPVFLVMTSSALIPQGKLVLMIGDIVTVIFPSSHSFILIMGNSKLREAFLKMLRFVKCFLRRRKPFVP"}}, "key": {"[1]": {"target": "T1, phage displaying HTTIPKV (phHTTIPKV)", "T1 sequence (peptide)": "HTTIPKV", "assay": "affinity purification with mass spectrometry; biotinylated phage carrying sulfo-SAND incubated with CAFs as bait, cross-linked by UV on ice, cells lysed, streptavidin agarose pull-down, SDS-PAGE with silver staining, unique band excised for MS/MS; only the target purified"}, "[2]": {"target": "T2, phage displaying APPIMSV (phAPPIMSV)", "T2 sequence (peptide)": "APPIMSV", "assay": "affinity purification with mass spectrometry; biotinylated phage carrying sulfo-SAND incubated with CAFs as bait, cross-linked by UV on ice, cells lysed, streptavidin agarose pull-down, SDS-PAGE with silver staining, unique band excised for MS/MS; only the target purified"}}, "note": "These are yes or no findings as the source states them, for the method shown. Binding seen in cells or lysates may run through a third protein. A yes stands for co-enrichment or nearness to the bait. Other partners may have been found. For some assays here: A no says only that the protein was not detected with the bait."}
{"binder": "B1", "values": [{"measurement": "binding", "setting": "[1]", "value": "binds"}, {"measurement": "binding", "setting": "[2]", "value": "no binding"}]}
